This data set addresses T1, GLI3 (His-tagged + probably zinc-finger fragment) (UniProt P10071).
T1 sequence (looked up, limits assumed): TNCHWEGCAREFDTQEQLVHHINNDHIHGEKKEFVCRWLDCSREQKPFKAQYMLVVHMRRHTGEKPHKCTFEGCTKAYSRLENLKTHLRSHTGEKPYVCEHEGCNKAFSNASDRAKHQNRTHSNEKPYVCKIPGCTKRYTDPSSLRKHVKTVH
Nature of the data set: EMSA. The settings on record: negligible shift, 5 mM MgCl2; EMSA: 20 mM Tris-HCl pH 7.5, 50 mM NaCl, 5 mM MgCl2, 0.2 mM EDTA, 1 mM DTT, 1 h at room temperature; 6% native PAGE; recombinant protein; protein details: His; label: biotin. (Mobility shift assays separate free from complexed probe on a gel.)

Construct, isoform or probe ends are uncertain for at least one entry. The comparison behind a weaker result is the experiment's own reference, which may not be listed here. Tags and fusion partners may be left off the protein sequences shown.

Here are results for one sequence from publication PMC11996917, “An inherited predisposition allele promotes gastric cancer via enhancing deubiquitination-mediated activation of epithelial-to-mesenchymal transition signaling”.

In the case of “CCCCAAGCAGGGAGTGGCCCCTGAG (double strand) [rs72856331-A]”, the binding result was “binds more weakly”.
